Reference: paper PMC9334090
No constants are given. Whether binding was seen depends on the method and setting. In cells and extracts the contact can be indirect. Binding calls can cover weak binding; strength is not graded here.

Amino acid sequences for entries named in this document (tags omitted). A change or cut given only in a name is not applied to a line headed by its entry.
UniProt O15016: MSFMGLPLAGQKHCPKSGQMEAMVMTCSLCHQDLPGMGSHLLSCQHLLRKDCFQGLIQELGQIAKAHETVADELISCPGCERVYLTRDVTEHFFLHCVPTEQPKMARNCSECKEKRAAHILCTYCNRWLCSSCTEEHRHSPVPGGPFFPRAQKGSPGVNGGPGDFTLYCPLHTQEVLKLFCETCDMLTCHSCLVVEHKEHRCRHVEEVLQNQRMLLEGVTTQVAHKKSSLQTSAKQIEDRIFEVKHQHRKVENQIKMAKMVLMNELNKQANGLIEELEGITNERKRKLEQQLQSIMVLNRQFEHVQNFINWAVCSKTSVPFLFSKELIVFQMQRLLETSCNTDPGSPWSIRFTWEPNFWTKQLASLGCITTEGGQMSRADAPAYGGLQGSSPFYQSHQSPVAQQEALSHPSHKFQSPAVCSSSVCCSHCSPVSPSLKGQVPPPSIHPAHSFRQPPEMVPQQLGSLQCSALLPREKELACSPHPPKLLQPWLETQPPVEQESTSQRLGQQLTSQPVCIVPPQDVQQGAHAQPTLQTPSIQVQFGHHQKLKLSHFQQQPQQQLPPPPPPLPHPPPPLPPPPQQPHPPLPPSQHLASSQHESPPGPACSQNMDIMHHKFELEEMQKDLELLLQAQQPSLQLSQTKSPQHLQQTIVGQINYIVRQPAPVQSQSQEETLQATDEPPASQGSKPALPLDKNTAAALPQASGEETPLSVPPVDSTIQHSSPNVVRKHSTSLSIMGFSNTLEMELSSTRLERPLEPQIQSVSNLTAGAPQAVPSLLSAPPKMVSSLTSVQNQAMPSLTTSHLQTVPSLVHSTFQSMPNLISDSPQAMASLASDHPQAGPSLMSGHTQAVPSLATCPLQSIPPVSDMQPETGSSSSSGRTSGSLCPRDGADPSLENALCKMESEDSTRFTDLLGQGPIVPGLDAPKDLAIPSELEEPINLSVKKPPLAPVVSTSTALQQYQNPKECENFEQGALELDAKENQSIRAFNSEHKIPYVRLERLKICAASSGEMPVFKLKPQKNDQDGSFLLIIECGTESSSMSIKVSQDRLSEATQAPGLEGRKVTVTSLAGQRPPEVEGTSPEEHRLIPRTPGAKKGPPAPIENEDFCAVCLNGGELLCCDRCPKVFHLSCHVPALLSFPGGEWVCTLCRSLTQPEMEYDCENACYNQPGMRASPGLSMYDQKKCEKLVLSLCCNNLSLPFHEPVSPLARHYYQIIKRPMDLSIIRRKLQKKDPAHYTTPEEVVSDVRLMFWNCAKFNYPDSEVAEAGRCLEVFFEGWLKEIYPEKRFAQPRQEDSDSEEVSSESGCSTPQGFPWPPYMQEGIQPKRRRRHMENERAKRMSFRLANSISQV
UniProt P08253: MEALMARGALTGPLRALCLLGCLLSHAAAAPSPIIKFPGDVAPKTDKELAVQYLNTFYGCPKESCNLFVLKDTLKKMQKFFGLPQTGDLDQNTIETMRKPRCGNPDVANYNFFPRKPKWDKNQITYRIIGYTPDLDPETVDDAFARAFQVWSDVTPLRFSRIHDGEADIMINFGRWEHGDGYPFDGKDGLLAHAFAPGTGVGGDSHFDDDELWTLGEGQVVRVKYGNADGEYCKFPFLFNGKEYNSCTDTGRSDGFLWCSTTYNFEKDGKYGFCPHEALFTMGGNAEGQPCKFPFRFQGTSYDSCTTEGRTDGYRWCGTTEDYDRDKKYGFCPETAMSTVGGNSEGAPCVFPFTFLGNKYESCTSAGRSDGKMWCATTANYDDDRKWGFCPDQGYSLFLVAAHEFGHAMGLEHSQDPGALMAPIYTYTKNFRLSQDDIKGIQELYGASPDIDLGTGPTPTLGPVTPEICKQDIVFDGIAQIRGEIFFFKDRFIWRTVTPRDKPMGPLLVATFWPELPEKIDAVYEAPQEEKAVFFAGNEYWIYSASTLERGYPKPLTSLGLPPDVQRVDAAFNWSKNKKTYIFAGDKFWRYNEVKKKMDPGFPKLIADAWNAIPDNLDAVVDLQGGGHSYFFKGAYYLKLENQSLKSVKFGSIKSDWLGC
UniProt P14780: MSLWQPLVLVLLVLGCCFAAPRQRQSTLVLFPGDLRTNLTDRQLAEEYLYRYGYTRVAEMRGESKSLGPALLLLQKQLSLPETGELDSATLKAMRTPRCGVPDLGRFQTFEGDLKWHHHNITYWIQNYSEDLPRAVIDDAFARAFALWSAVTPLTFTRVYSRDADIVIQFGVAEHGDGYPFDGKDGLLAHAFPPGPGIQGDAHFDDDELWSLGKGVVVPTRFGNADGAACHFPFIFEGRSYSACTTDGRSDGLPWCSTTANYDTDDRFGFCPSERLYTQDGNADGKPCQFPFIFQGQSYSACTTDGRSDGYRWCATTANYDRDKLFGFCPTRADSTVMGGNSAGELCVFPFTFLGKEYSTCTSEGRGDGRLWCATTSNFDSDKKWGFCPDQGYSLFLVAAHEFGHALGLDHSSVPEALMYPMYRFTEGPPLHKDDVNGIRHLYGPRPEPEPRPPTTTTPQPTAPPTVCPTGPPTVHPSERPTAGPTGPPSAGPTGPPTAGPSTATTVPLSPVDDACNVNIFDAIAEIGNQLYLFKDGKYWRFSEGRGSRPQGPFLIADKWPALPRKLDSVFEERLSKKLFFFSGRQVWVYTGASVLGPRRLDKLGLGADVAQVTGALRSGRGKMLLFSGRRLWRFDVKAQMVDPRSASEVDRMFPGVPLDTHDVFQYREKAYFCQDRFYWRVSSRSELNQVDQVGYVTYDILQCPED

Molecular target: TRIM66 (human (endogenous in NSCLC cells)) (UniProt O15016)
Assay: co-IP; cell lysate in Co-IP buffer with protease inhibitors, precleared with protein A/G beads; immunoprecipitation with TRIM66 antibody or control IgG for more than 4 h at 4°C; protein A/G capture, washed three times with PBS; Western blot

Substance	binding
MMP2 (from UniProt P08253)	no binding
Matrix metalloproteinase 9 (from UniProt P14780)	binds
